No constants are given. Whether binding was seen depends on the method and setting. Some binding calls cover weakened binding; strength is not graded here.

For the experiment, the target named is FrzCD^ΔH2 (Myxococcus xanthus) (UniProt P43500). Briefly: SEC-MALS.

B1: FrzCD^ΔH2 (receptor, Myxococcus xanthus, UniProt P43500 1-417, looked up)
chain: MSLDTPNEKPAGKARARKAPASKAGATNAASTSSSTKAITDTLLTVLSGNLQARVPKELVGESGVELAHLLNQVLDQFAASEHVREINEAALRLSSSANQVLAASTQHETSSTEQAAAIHETTATMEELKHASAQIAENAGSVARVAEETLGAARAGRGAIGEFIQAMQQIRSDGVAVADSIAKLSKRVERIGTVVEVIDEIADRSDLLALNAALEGSRAGEAGKGFSIVAAEMRRLAENVLDSTKEIKNLITEIREATAAAAGAAEASKSATESGEKLGAVAAQAVEGILAGVQETSDAARVINLATQQQRTATEQVVASMAEIEDVTRQTTQASKQATGAAAELTQLAGRLAELIKRFKAD
With B1, the binding entry is recorded as “binds”.

The record behind these values is paper doi:10.1101/2024.09.02.610768 (bioRxiv, 2024).
